Measured values: US20020127594A1 (Takeda / Millennium, published 2002)
These are yes or no findings as the source states them, for the method shown. Some results given as binding are weak or reduced against the parent protein; the word gives no strength. Tags and fused reporters may be left off the sequences shown.

What was measured:
[1] = molecular target: p185 (erbB2), 185 kDa receptor-type tyrosine kinase of the EGFR family, in MDA-MB453 breast adenocarcinoma cells (UniProt P04626); assay: inferred from p185 phosphorylation assay in MDA-MB453 cells (conditioned medium, antiphosphotyrosine Western blot)
[2] = molecular target: p185 (erbB2), 185 kDa receptor-type tyrosine kinase of the EGFR family, in MDA-MB453 breast adenocarcinoma cells (UniProt P04626); assay: inferred from p185 phosphorylation assay in MDA-MB453 cells (10% conditioned medium, 15 min, antiphosphotyrosine Western blot)

B1: Don-1 EGF domain-containing fusion polypeptide (EGF domain and flanking amino acids 85-154 of murine Don-1, C-terminal Flag epitope tag), secreted by … (ligand, not shown: small tags and cut ends)
chain: LHVNSVSTTLSSWSGHARKCNETAKSYCVNGGVCYYIEGINQLSCKCPNGFFGQRCLEKLPLRLYMPDPK
binding [1]: binds | binding [2]: binds
